According to patent US20220289816A1, “IMMUNOTHERAPY WITH B*07 RESTRICTED PEPTIDES AND COMBINATION OF PEPTIDES AGAINST CANCERS AND RELATED METHODS” (Immatics Biotechnologies GmbH, priority 2018, published 2022):

What was measured:
[1] = system: tumor tissue samples and normal tissue samples (HLA-B*07 positive); assay: Identification and quantitation of tumor associated peptides presented on the cell surface (HLA immunoprecipitation, label-free LC-MS); set-up: species or system human; conditions: Table 8a; cancer entities on which the peptide was found presented (abbreviations in table head)
[2] = system: source genes of the peptides (mRNA); assay: Expression profiling of genes encoding the peptides (RNAseq of tumor and normal tissue RNA); set-up: species or system human; conditions: for Gene Expression in tumor samples: over-expressed (+): tumor entities in which the source gene of the peptide is over-expressed compared to a panel of normal tissues (RNAseq); for Gene Expression in tumor samples: very highly over-expressed (+++): tumor entities in which the source gene of the peptide is very highly over-expressed compared to a panel of normal tissues (RNAseq); for Gene Expression in tumor samples: Highly over-expressed (++): tumor entities in which the source gene of the peptide is highly over-expressed compared to a panel of normal tissues (RNAseq)

Row | Substance | Peptide Presentation on cancer entities [1] | Gene Expression in tumor samples: over-expressed (+) [2] | Gene Expression in tumor samples: very highly over-expressed (+++) [2] | Gene Expression in tumor samples: Highly over-expressed (++) [2]
1 | 1: peptide found in KLK2 (gene looked up) (RPRSLQCVSL; listed as Homo sapiens) [compound 1] | PRCA | CLL | PRCA | –
2 | 3: peptide found in SLC6A3 (gene looked up) (MPYVVLTAL; listed as Homo sapiens) [compound 3] | RCC | NSCLCsquam, SCLC | HCC | NSCLCadeno
3 | 6: peptide found in MMP12 (gene looked up) (LPLNSSTSL; listed as Homo sapiens) [compound 6] | SCLC | BRCA, HCC, RCC | GBC, NSCLCother, NSCLCsqua; m,SCLC | CCC, CRC, GC, HNSCC, MEL, NHL, NSCLCadeno, OC, OSCAR, PACA, UBC, UEC
4 | 14: peptide found in MMP12 (gene looked up) (AVHEIGHSL; listed as Homo sapiens) [compound 14] | NSCLCadeno | HCC, RCC | CRC, GBC, HNSCC, NSCLCother, NSCLCsqua; m, OSCAR, SCLC, UBC | CCC, GC, MEL, NHL, NSCLCadeno, OC, PACA, UEC
5 | 15: peptide found in CYP4Z1 (gene looked up) (KPGFNISIL; listed as Homo sapiens) [compound 15] | BRCA | – | BRCA | –
6 | 16: peptide found in CYP4Z1 (gene looked up) (FPAPPAHWF; listed as Homo sapiens) [compound 16] | BRCA | – | BRCA | –
7 | 31: peptide found in KISS1R (gene looked up) (RPGPSDPAA; listed as Homo sapiens) [compound 31] | NSCLCadeno | NSCLCadeno, UEC | – | RCC
8 | 32: peptide found in PGR (gene looked up) (APMAPGRSPL; listed as Homo sapiens) [compound 32] | UEC | BRCA | – | UEC
9 | 33: peptide found in PGR (gene looked up) (LPRGLSPARQL; listed as Homo sapiens) [compound 33] | UEC | BRCA | – | UEC
10 | 34: peptide found in PGR (gene looked up) (APMAPGRSP; listed as Homo sapiens) [compound 34] | BRCA, UEC | BRCA | – | UEC
11 | 36: peptide found in FLT3 (gene looked up) (RPFSREMDL; listed as Homo sapiens) [compound 36] | AML, OC | – | – | AML
12 | 38: peptide found in FLT3 (gene looked up) (RPSFPNLTSF; listed as Homo sapiens) [compound 38] | AML, OC | – | – | AML

For some assays here: Expression values are those of the mRNA of the gene that encodes the peptide; a gene is named only where it was looked up.
